Measurements as given in the supplement of paper PMC8728848.
The other results are listed elsewhere or left out.

Key:
Test in all cases: glycan array binding signal (z-score within array); higher = stronger binding
Conditions in all cases: glycan notation: IUPAC condensed, linker removed
[1] = biological target: Gal(a1-3)[Gal(a1-4)]Gal(b1-4)GlcNAc
Method in brief: (§1)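 Glycan array data were curated from 3228 arrays in the Consortium for Functional Glycomics database and kept only where the protein sequence was available. Glycan names were converted to IUPAC-condensed notation, and columns mapping to the same glycan were averaged. The binding signal is a within-array Z-score, averaged across arrays of the same protein sequence at different concentrations or buffers and across linkers. Negative Z-scores can be read as non-binding.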

[2] = biological target: Gal(a1-4)Gal(b1-3)GlcNAc(b1-2)Man(a1-3)[Gal(a1-4)Gal(b1-3)GlcNAc(b1-2)Man(a1-6)]Man(b1-4)GlcNAc(b1-4)GlcNAc
Method in brief: as §1

[3] = biological target: Gal(a1-4)Gal(b1-4)Glc
Method in brief: as §1

[4] = biological target: Gal(a1-4)Gal(b1-4)GlcNAc
Method in brief: as §1

[5] = biological target: Gal(a1-4)Gal(b1-4)GlcNAc(b1-2)Man(a1-3)[Gal(a1-4)Gal(b1-4)GlcNAc(b1-2)Man(a1-6)]Man(b1-4)GlcNAc(b1-4)GlcNAc
Method in brief: as §1

[6] = biological target: Gal(a1-4)Gal(b1-4)GlcNAc(b1-3)Gal(b1-4)Glc
Method in brief: as §1

[7] = biological target: Gal(a1-4)GlcNAc
Method in brief: as §1

[8] = biological target: Gal(a1-6)Glc
Method in brief: as §1

[9] = biological target: Gal(b1-2)Gal
Method in brief: as §1

[10] = biological target: Gal(b1-3)Gal
Method in brief: as §1

[11] = biological target: Gal(b1-3)Gal(b1-4)GlcNAc
Method in brief: as §1

[12] = biological target: Gal(b1-3)GalNAc
Method in brief: as §1

[13] = biological target: Gal(b1-3)GalNAc(a1-3)[Fuc(a1-2)]Gal(b1-4)Glc
Method in brief: as §1

[14] = biological target: Gal(b1-3)GalNAc(a1-3)[Fuc(a1-2)]Gal(b1-4)GlcNAc
Method in brief: as §1

[15] = biological target: Gal(b1-3)GalNAc(b1-3)Gal
Method in brief: as §1

[16] = biological target: Gal(b1-3)GalNAc(b1-3)Gal(a1-4)Gal(b1-4)Glc
Method in brief: as §1

[17] = biological target: Gal(b1-3)GalNAc(b1-4)Gal(b1-4)Glc
Method in brief: as §1

[18] = biological target: Gal(b1-3)GalNAc(b1-4)[Neu5Ac(a2-3)]Gal(b1-4)Glc
Method in brief: as §1

[19] = biological target: Gal(b1-3)GlcNAc
Method in brief: as §1

[20] = biological target: Gal(b1-3)GlcNAc(a1-3)Gal(b1-4)GlcNAc
Method in brief: as §1

[21] = biological target: Gal(b1-3)GlcNAc(a1-6)Gal(b1-4)GlcNAc
Method in brief: as §1

[22] = biological target: Gal(b1-3)GlcNAc(b1-2)Man
Method in brief: as §1

[23] = biological target: Gal(b1-3)GlcNAc(b1-2)Man(a1-3)[Gal(b1-3)GlcNAc(b1-2)Man(a1-6)]Man(b1-4)GlcNAc(b1-4)GlcNAc
Method in brief: as §1

[24] = biological target: Gal(b1-3)GlcNAc(b1-2)Man(a1-3)[Gal(b1-3)GlcNAc(b1-2)Man(a1-6)]Man(b1-4)GlcNAc(b1-4)[Fuc(a1-6)]GlcNAc
Method in brief: as §1

[25] = biological target: Gal(b1-3)GlcNAc(b1-2)Man(a1-3)[GlcNAc(b1-4)][Gal(b1-3)GlcNAc(b1-2)Man(a1-6)]Man(b1-4)GlcNAc(b1-4)GlcNAc
Method in brief: as §1

[26] = biological target: Gal(b1-3)GlcNAc(b1-2)[Gal(b1-3)GlcNAc(b1-6)]Man(a1-6)[Gal(b1-3)GlcNAc(b1-2)Man(a1-3)]Man(b1-4)GlcNAc(b1-4)GlcNAc
Method in brief: as §1

[27] = biological target: Gal(b1-3)GlcNAc(b1-3)Gal(b1-3)GlcNAc
Method in brief: as §1

[28] = biological target: Gal(b1-3)GlcNAc(b1-3)Gal(b1-4)Glc
Method in brief: as §1

[29] = biological target: Gal(b1-3)GlcNAc(b1-3)Gal(b1-4)GlcNAc
Method in brief: as §1

[30] = biological target: Gal(b1-3)GlcNAc(b1-3)Gal(b1-4)GlcNAc(b1-2)Man(a1-3)[Gal(b1-3)GlcNAc(b1-3)Gal(b1-4)GlcNAc(b1-2)Man(a1-6)]Man(b1-4)GlcNAc(b1-4)GlcNAc
Method in brief: as §1

[31] = biological target: Gal(b1-3)GlcNAc(b1-3)Gal(b1-4)GlcNAc(b1-2)[Gal(b1-3)GlcNAc(b1-3)Gal(b1-4)GlcNAc(b1-6)]Man(a1-6)[Gal(b1-3)GlcNAc(b1-3)Gal(b1-4)GlcNAc(b1-2)Man(a1-3)]Man(b1-4)GlcNAc(b1-4)[Fuc(a1-6)]GlcNAc
Method in brief: as §1

[32] = biological target: Gal(b1-3)GlcNAc(b1-3)Gal(b1-4)GlcNAc(b1-3)Gal(b1-4)GlcNAc(b1-2)[Gal(b1-3)GlcNAc(b1-3)Gal(b1-4)GlcNAc(b1-3)Gal(b1-4)GlcNAc(b1-6)]Man(a1-6)[Gal(b1-3)GlcNAc(b1-3)Gal(b1-4)GlcNAc(b1-3)Gal(b1-4)GlcNAc(b1-2)Man(a1-3)]Man(b1-4)GlcNAc(b1-4)[Fuc(a1-6)]GlcNAc
Method in brief: as §1

[33] = biological target: Gal(b1-3)GlcNAc(b1-3)Gal(b1-4)GlcNAc(b1-6)[Gal(b1-3)GlcNAc(b1-3)]Gal(b1-4)Glc
Method in brief: as §1

[34] = biological target: Gal(b1-3)GlcNAc(b1-3)Gal(b1-4)[Fuc(a1-3)]GlcNAc
Method in brief: as §1

[35] = biological target: Gal(b1-3)GlcNAc(b1-3)Gal(b1-4)[Fuc(a1-3)]GlcNAc(b1-6)[Gal(b1-3)GlcNAc(b1-3)]Gal(b1-4)Glc
Method in brief: as §1

[36] = biological target: Gal(b1-3)GlcNAc(b1-3)GalNAc
Method in brief: as §1

[37] = biological target: Gal(b1-3)GlcNAc(b1-6)Gal(b1-4)GlcNAc
Method in brief: as §1

[38] = biological target: Gal(b1-3)GlcNAc(b1-6)GalNAc
Method in brief: as §1

B1: GS13814A-bth-462-26-462 (Bacteroides thetaiotaomicron) (protein)
chain: DDRDNLMVNDQIGLLHSTYTETEIFRGMDTPYQLFVIKSGKGKQETEVSISVDETVLQSYNTDNGTSIQLLPSDCYTILQPALRLNDSDYRKAFDIKWNADRLSDLLSTGKEYGLPIQMSVVQNFISADDERLKTIIVPTIKEPYLQMDVPGMSPVTDFMPTFGDLNERELFVKIRTNYSNDEDISFQIEVDPQLVIDYNTAHGTAYKMLPESSFTVDNKGVILTGMKETFIKIKYHKKGLIPEEGTYLFGDYVLPLRITSVSKYGISPDAASKLYTVKFQPDPIDKKGWSVIDFNNCCTQDGGWYLNMGWGVESLIDNNPGTQWLCRWDVKEPLPYYFVFDMGKEYTLFRFGFANPVAPAAHVWAGTSKAGYVEASIDNENWVKLKDWTSPKIGEPNVNMDVPATQARYIRFVITDTYPTYDGLRVSLGEVYAWGM
[1]
  glycan array binding signal (z-score): 0.196
[2]
  glycan array binding signal (z-score): -0.82
[3]
  glycan array binding signal (z-score): 0.959
[4]
  glycan array binding signal (z-score): 1.46
[5]
  glycan array binding signal (z-score): 1.02
[6]
  glycan array binding signal (z-score): 0.92
[7]
  glycan array binding signal (z-score): -0.321
[8]
  glycan array binding signal (z-score): -0.354
[9]
  glycan array binding signal (z-score): 0.083
[10]
  glycan array binding signal (z-score): 0.012
[11]
  glycan array binding signal (z-score): -0.412
[12]
  glycan array binding signal (z-score): -0.247
[13]
  glycan array binding signal (z-score): -0.25
[14]
  glycan array binding signal (z-score): -0.498
[15]
  glycan array binding signal (z-score): 0.61
[16]
  glycan array binding signal (z-score): -1.37
[17]
  glycan array binding signal (z-score): -0.387
[18]
  glycan array binding signal (z-score): 0.392
[19]
  glycan array binding signal (z-score): -0.451
[20]
  glycan array binding signal (z-score): -0.742
[21]
  glycan array binding signal (z-score): -0.371
[22]
  glycan array binding signal (z-score): 2.1
[23]
  glycan array binding signal (z-score): 1.12
[24]
  glycan array binding signal (z-score): 0.998
[25]
  glycan array binding signal (z-score): 0.37
[26]
  glycan array binding signal (z-score): 0.334
[27]
  glycan array binding signal (z-score): -0.09
[28]
  glycan array binding signal (z-score): -0.983
[29]
  glycan array binding signal (z-score): -0.017
[30]
  glycan array binding signal (z-score): -0.375
[31]
  glycan array binding signal (z-score): -0.234
[32]
  glycan array binding signal (z-score): 1.4
[33]
  glycan array binding signal (z-score): 0.724
[34]
  glycan array binding signal (z-score): 0.725
[35]
  glycan array binding signal (z-score): -0.616
[36]
  glycan array binding signal (z-score): -1.28
[37]
  glycan array binding signal (z-score): -0.699
[38]
  glycan array binding signal (z-score): -0.496
